# Source: PubChem BioAssay AID504793 (Drosophila RNAi Screening Center, 2011)
# Test: 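Genes required for cells to halt at G2/M after double-strand DNA breaks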 (primary screen)
# System: Drosophila S2R+ cells
# Reagents: long dsRNA against Drosophila genes, about 0.25 µg dsRNA per well
# Time to read-out: 4 days of dsRNA, then 4 hours of drug before read-out
# Challenge: doxorubicin 0.5 µM for 4 hours to cause double-strand breaks, in cells also given a low, harmless dose of dsRNA against nbs to sensitise the assay
# Read-out: 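Per-well count of mitotic cells stained for phospho-histone H3 after doxorubicin exposure, used as mitotic index; counts are raw and not normalised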
# Direction: mitotic cells: higher = more cells in mitosis, weaker G2 arrest
# Call rule: 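Genes are called active only when high mitotic counts were reproduced with independent dsRNAs and mitosis was checked for delay without damage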
# Calls: active = confirmed in follow-up tests; inactive = not confirmed
# The screen tested about 23,000 reagents; shown is an unselected part of those that have a named target and a result. Of all reagents, 62 (0.27%) are marked active. 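Calls come from follow-up tests whose scores are not deposited, so confirmed genes may have low counts here; counts are not normalised per plate.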 Raw values are not corrected between plates. A plus sign joins genes that one reagent is predicted to hit.
gene,DRSC id,"mitotic cells, replicate 1",Outcome
CG33116,DRSC02045,5,inactive
nom (numerous disordered muscles),DRSC16389,1,inactive
nom (numerous disordered muscles),DRSC26026,5,inactive
CG14613,DRSC20625,3,inactive
CG14613,DRSC27260,3,inactive
CG13625,DRSC14627,9,inactive
phtf,DRSC05023,15,inactive
phtf,DRSC28441,1,inactive
Ugt36A1 (UDP-glycosyltransferase family 36 member A1),DRSC00748,6,inactive
Ugt36A1 (UDP-glycosyltransferase family 36 member A1),DRSC29161,7,inactive
CG3164,DRSC00572,3,inactive
CG9890,DRSC04590,6,inactive
CG9890,DRSC25594,3,inactive
CG32373,DRSC08895,4,inactive
Nulp1 (Nuclear localized protein 1),DRSC09677,8,inactive
Prosbeta2R1 (Proteasome beta2 subunit-related 1),DRSC18154,12,inactive
CG32425,DRSC11764,3,inactive
CG12885,DRSC14572,14,inactive
CG12885,DRSC25241,4,inactive
CG14488,DRSC06460,6,inactive
CG4945,DRSC06904,6,inactive
CG4945,DRSC29644,6,inactive
lectin-30A,DRSC02560,4,inactive
"Brca2 (BRCA2, DNA repair associated)",DRSC04219,4,inactive
"Brca2 (BRCA2, DNA repair associated)",DRSC04220,8,inactive
CG2116,DRSC18206,4,inactive
CG2116,DRSC24617,2,inactive
bsd (back seat driver),DRSC05953,8,inactive
fd96Ca (forkhead domain 96Ca),DRSC16946,12,inactive
fd96Ca (forkhead domain 96Ca),DRSC23974,4,inactive
CG18764,DRSC15391,4,inactive
CG11068,DRSC19369,6,inactive
galene,DRSC08640,8,inactive
galene,DRSC08641,6,inactive
CG11149,DRSC02130,1,inactive
ms(2)34Fe (male sterile (2) 34Fe),DRSC01905,6,inactive
CG13058,DRSC09941,6,inactive
CG13058,DRSC27898,10,inactive
CG15450,DRSC20522,7,inactive
CG34460,DRSC06974,5,inactive
snk (snake),DRSC17060,8,inactive
LanA (Laminin A),DRSC11207,4,inactive
CG15841 (retired record) + Acp33A,DRSC01859,4,inactive
CG13403,DRSC19535,9,inactive
CG13403,DRSC26850,7,inactive
CG2712,DRSC18589,5,inactive
CG9259,DRSC03174,2,inactive
Piezo,DRSC03092,3,inactive
CG14232,DRSC19588,4,inactive
CG14232,DRSC27714,8,inactive
pinta,DRSC14698,8,inactive
CG12699,DRSC06162,8,inactive
CG12699,DRSC25679,5,inactive
shps (sheepish),DRSC14614,11,inactive
CG31161,DRSC16144,18,inactive
CG31161,DRSC25099,4,inactive
lcs (la costa),DRSC20580,9,inactive
lcs (la costa),DRSC25611,13,inactive
CG1674,DRSC17142,18,inactive
CG1674,DRSC29516,6,inactive
CG10936,DRSC05669,8,inactive
CG10936,DRSC05670,2,inactive
CG10936,DRSC06018,4,inactive
fbl (fumble),DRSC29115,8,inactive
DnaJ-H (DnaJ homolog),DRSC03273,5,inactive
EndoA (Endophilin A),DRSC14775,10,inactive
EndoA (Endophilin A),DRSC29646,5,inactive
CG9948,DRSC11104,7,inactive
BubR1 (Bub1-related kinase),DRSC04838,10,inactive
CG12912,DRSC25772,4,inactive
CG11000,DRSC12158,5,inactive
CG11000,DRSC27020,5,inactive
CG2291,DRSC06836,8,inactive
Polr1H (RNA polymerase I subunit H),DRSC14594,8,inactive
Polr1H (RNA polymerase I subunit H),DRSC28980,3,inactive
RpL3 + CG6693,DRSC16097,2,inactive
Spt20,DRSC22993,13,inactive
Spt20,DRSC25791,5,inactive
CG33325,DRSC12699,10,inactive
scrib (scribble),DRSC13774,8,inactive
scrib (scribble),DRSC15809,7,inactive
scrib (scribble),DRSC17051,9,inactive
scrib (scribble),DRSC25196,6,inactive
CG12289,DRSC09874,3,inactive
Drep4 (DNA fragmentation factor-related protein 4),DRSC03408,5,inactive
CG10026,DRSC02010,7,inactive
CG32835 (retired record),DRSC22693,12,inactive
CG32835 (retired record),DRSC26198,4,inactive
CG18371,DRSC06733,11,inactive
CG11885,DRSC00329,11,inactive
CG12659,DRSC17862,12,inactive
CG12659,DRSC27326,6,inactive
CG3448,DRSC10368,4,inactive
CG3448,DRSC27580,10,inactive
TTLL5 (Tubulin tyrosine ligase-like 5),DRSC14181,7,inactive
hth (homothorax),DRSC16967,7,inactive
hth (homothorax),DRSC24749,3,inactive
CG14671,DRSC12257,4,inactive
CG9162 (retired record),DRSC03151,8,inactive
CG42362 + CG42363,DRSC04265,3,inactive
CG13344,DRSC06378,5,inactive
Vps25 (Vacuolar protein sorting 25),DRSC06486,5,inactive
rig (rigor mortis),DRSC06053,4,inactive
rig (rigor mortis),DRSC06400,7,inactive
CG7443,DRSC16244,1,inactive
CG12065,DRSC17798,4,inactive
CG12065,DRSC17799,11,inactive
CG5850,DRSC02905,5,inactive
Chchd2 (Coiled-coil-helix-coiled-coil-helix domain containing 2),DRSC19931,10,inactive
Chchd2 (Coiled-coil-helix-coiled-coil-helix domain containing 2),DRSC29551,4,inactive
